No constants are given. Whether binding was seen depends on the method and setting. Binding seen in cells or lysates may run through a third protein. Binding calls can cover weak binding; strength is not graded here. Where a sequence is shown, tags or fusion partners need not be part of it.
Target: T1, Rho family GTPase 3 (Rnd3), Flag-tagged, expressed from adenovirus Ad-Rnd3-Flag (UniProt P61588)
T1 sequence: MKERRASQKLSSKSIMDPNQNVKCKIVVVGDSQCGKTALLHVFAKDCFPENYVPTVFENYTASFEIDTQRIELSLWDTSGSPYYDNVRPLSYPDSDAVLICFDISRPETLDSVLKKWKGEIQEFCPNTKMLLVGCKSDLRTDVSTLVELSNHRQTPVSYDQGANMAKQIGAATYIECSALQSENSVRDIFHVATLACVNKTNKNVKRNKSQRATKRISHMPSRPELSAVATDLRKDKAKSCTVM
Assay: co-IP; cardiac fibroblasts treated with Ad-Rnd3-Flag in conditioned medium (HG+PA); which protein was precipitated is not told in the text shown

Notch intracellular domain (NICD) (domain or fragment)
binding: binds

Source: PMC9691359
